{"sequences": {"note": "The chains behind the UniProt entries cited, without tags or fusion partners. Where a name states a change or a piece, a line headed by the entry shows the natural chain unless it says otherwise.", "UniProt Q9UNA4": "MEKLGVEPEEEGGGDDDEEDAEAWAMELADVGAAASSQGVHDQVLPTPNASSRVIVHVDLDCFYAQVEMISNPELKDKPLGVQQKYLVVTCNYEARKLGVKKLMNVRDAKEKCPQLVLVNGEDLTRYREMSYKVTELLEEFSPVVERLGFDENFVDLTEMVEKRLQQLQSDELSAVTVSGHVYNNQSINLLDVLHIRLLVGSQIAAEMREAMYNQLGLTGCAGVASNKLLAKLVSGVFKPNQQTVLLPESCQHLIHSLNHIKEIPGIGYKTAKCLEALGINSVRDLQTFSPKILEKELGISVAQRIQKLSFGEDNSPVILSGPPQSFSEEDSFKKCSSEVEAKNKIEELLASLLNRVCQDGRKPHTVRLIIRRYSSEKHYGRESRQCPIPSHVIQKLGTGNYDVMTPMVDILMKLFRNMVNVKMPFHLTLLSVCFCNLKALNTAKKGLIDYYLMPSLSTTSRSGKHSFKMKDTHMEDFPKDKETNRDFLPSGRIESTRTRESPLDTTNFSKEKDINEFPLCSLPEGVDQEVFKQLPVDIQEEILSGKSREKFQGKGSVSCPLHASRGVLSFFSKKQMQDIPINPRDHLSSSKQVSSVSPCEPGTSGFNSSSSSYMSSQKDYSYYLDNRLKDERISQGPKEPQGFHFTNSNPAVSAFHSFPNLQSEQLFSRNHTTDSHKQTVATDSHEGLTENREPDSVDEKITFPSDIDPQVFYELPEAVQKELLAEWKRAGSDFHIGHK"}, "source": "PubChem BioAssay AID588590", "about": "(National Center for Advancing Translational Sciences (NCATS), 2011)", "note": "The campaign covered roughly 390,000 compounds. About 4,000 (1%) were called active. The inconclusive results got no clear call from the source; some entries with a clear call stand among them for comparison. Calls come from the whole dose curve; as a rule, active = well fitted inhibition curve with a large enough effect; inconclusive = small, poorly fitted or top-dose-only effect, or another doubt; inactive = no such curve, though single readings can be large or run the other way. A potency beside an inconclusive call is a rough fit, not a confirmed value. Potency is the fitted concentration of half-maximal effect."}
{"molecular_target": "DNA polymerase iota (Homo sapiens) (UniProt Q9UNA4)", "assay": "qHTS for Inhibitors of Polymerase Iota", "conditions": "Pol iota fluorescent replication assay, 10 min; series mostly up to 115 µM; activity, negative = inhibition: at the top concentration", "summary_of_the_method": "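Pol iota at 10 nM preincubated 15 min with compounds at room temperature; reaction started with fluorescent substrate, 50 nM final. Fluorescence read kinetically at 0 and 10 min; buffer-only wells as negative control.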"}
{"smiles": "Cc1[nH]nc2c1[C@@H](c1ccccc1[N+](=O)[O-])C(C#N)=C(N)O2", "Potency": "inconclusive: 31.6 µM [inhibitor, partial curve]"}
{"smiles": "CN(CC(=O)Nc1ccccc1F)Cc1cccs1", "Potency": "inconclusive: 89.1 µM [inhibitor, partial curve, poor fit]"}
{"smiles": "CCCCOc1ccc(C(=O)Nc2ccc3c(c2)CCCN3S(=O)(=O)c2ccc(C)cc2)cc1", "activity, negative = inhibition": "inactive: 18.3%"}
{"smiles": "Cc1ccc2nc(SCC(=O)NC(=O)NCc3ccco3)[nH]c2c1", "Potency": "inconclusive: 11.2 µM [inhibitor, full curve, poor fit]"}
{"smiles": "CCN(CC)S(=O)(=O)c1ccc2c(c1)N(CC(=O)NCCN1CCOCC1)C(=O)CO2", "Potency": "inconclusive: 56.2 µM [inhibitor, partial curve, poor fit]"}
{"smiles": "CC[C@@]1(C(=O)OC)N[C@H](CN(C)S(=O)(=O)c2ccc(C(C)(C)C)cc2)[C@@H]2C(=O)N(C)C(=O)[C@@H]21", "Potency": "inconclusive: 35.5 µM [inhibitor, partial curve, poor fit]"}
{"smiles": "O=c1cc(N2CCOCC2)oc2c(-c3ccccc3)cccc12", "activity, negative = inhibition": "inactive: 5.98% [at 58.9 µM]"}
{"smiles": "COc1cccc(N=c2oc3cc(O)ccc3cc2C(=O)NCC2CCCO2)c1", "note": "(stereo not drawn)", "activity, negative = inhibition": "inactive: 29.6%"}
{"smiles": "O=C(N/N=C/C=C/c1ccco1)c1cnccn1", "Potency": "inconclusive: 14.1 µM [inhibitor, full curve]"}
{"smiles": "COc1ccc(-c2cc(=O)c3cc(OC)ccc3[nH]2)cc1", "Potency": "active: 35.5 µM"}
{"smiles": "O=C(NCc1ccccn1)c1nn(-c2ccccc2F)nc1CO", "activity, negative = inhibition": "inactive: -4.29%"}
{"smiles": "O=C(OCc1nnc(-c2ccc([N+](=O)[O-])cc2)o1)C1CCN(C(=O)c2ccc(Cl)cc2)CC1", "Potency": "inconclusive: 35.5 µM [inhibitor, partial curve, poor fit]"}
{"smiles": "CSc1cccc(N2CC(C(=O)N(CC(C)C)c3c(N)n(Cc4ccccc4)c(=O)[nH]c3=O)CC2=O)c1", "note": "(stereo not drawn)", "Potency": "inconclusive: 56.2 µM [inhibitor, partial curve, poor fit]"}
{"smiles": "Cc1scc(C(=O)NCc2ccco2)c1-c1ccccc1", "Potency": "inconclusive: 50.1 µM [inhibitor, partial curve]"}
{"smiles": "O=C(CSc1ccc2nnc(CCNS(=O)(=O)c3ccccc3)n2n1)Nc1ccccc1C(F)(F)F", "activity, negative = inhibition": "inactive: 19.6%"}
{"smiles": "CC(=O)[C@H]1[C@@H]2C(=O)N(c3cccc(Cl)c3)C(=O)[C@@H]2[C@H]2c3ccccc3C=CN21", "Potency": "inconclusive: 20 µM [inhibitor, full curve]"}
{"smiles": "COC(=O)/C=C1\\SC(=Nc2ccc(Cl)c(Cl)c2)NC1=O", "activity, negative = inhibition": "inactive: 56%"}
{"smiles": "O=C(O)CN1C(=O)/C(=C\\c2cccc(OCc3ccc(F)cc3)c2)SC1=S", "Potency": "inconclusive: 79.4 µM [inhibitor, partial curve]"}
{"smiles": "Cc1ccc(S(=O)(=O)Cc2ccc(C(=O)N3CCN(c4ccccn4)CC3)o2)cc1", "Potency": "inconclusive: 12.6 µM [inhibitor, partial curve, poor fit]"}
{"smiles": "Cn1c(SCC(=O)Nc2cccc(C(=O)O)c2)nnc1-c1cc2cc(Br)ccc2o1", "Potency": "inconclusive: 35.5 µM [inhibitor, full curve, poor fit]"}
{"smiles": "CCCc1nnc(NC(=O)CCC(=O)N2CCCCC2CC)s1", "note": "(stereo not drawn)", "Potency": "inconclusive: 39.8 µM [inhibitor, single point]"}
{"smiles": "CCN1CCN(Cc2ccc(NC(=O)c3ccc(C)c(NC(=O)N4CCNC4=O)c3)cc2C(F)(F)F)CC1", "Potency": "inconclusive: 35.5 µM [inhibitor, partial curve, poor fit]"}
{"smiles": "Cc1cccc(NC(=O)CC2C(=O)NCCN2C(=S)Nc2ccccc2)c1", "note": "(stereo not drawn)", "Potency": "inconclusive: 100 µM [inhibitor, partial curve, poor fit]"}
{"smiles": "CC(=O)c1ccc(NC(=O)CNC2CCCCC2)cc1", "Potency": "inconclusive: 10 µM [inhibitor, full curve, poor fit]"}
{"smiles": "CC(=O)Oc1cc2c3c(c1)/C(=C1/SC(=S)NC1=O)C(=O)N3C(C)(C)C=C2C", "Potency": "inconclusive: 15.8 µM [inhibitor, single point]"}
{"smiles": "O=C(NCCc1ccc(Cl)cc1)c1ccc(CS(=O)(=O)Cc2ccc(Cl)cc2)o1", "Potency": "inconclusive: 14.1 µM [inhibitor, partial curve, poor fit]"}
{"smiles": "CC(=O)N1c2ccccc2C2CCCC[C@H]21", "note": "(stereo partly drawn)", "Potency": "inconclusive: 79.4 µM [inhibitor, single point]"}
{"smiles": "COCCN1Cc2cccc(C(=O)Nc3cccc(-c4nc5ccccc5[nH]4)c3)c2C1=O", "Potency": "inconclusive: 89.1 µM [inhibitor, partial curve]"}
{"smiles": "Cc1nc2ccccc2c2oc(C(=O)NCCCN3CC(C)CC(C)C3)cc12", "note": "(stereo not drawn)", "Potency": "inconclusive: 89.1 µM [inhibitor, partial curve, poor fit]"}
{"smiles": "Cc1ccc(NC(=O)COC(=O)c2cc(=O)c3ccccc3o2)cc1F", "activity, negative = inhibition": "inactive: 1.45%"}
{"smiles": "O=C(NC(=O)c1cc([N+](=O)[O-])ccc1Cl)C1=C(N2CCCC2)COC1=O", "Potency": "inconclusive: 39.8 µM [inhibitor, single point]"}
{"smiles": "CCc1oc2ccccc2c1C(=O)CCN1CCCCC1", "Potency": "inconclusive: 25.1 µM [inhibitor, partial curve, poor fit]"}
{"smiles": "Cn1c(N)c(C(=O)CSc2nc(N)cc(=O)[nH]2)c(=O)n(C)c1=O", "Potency": "inconclusive: 39.8 µM [inhibitor, single point]"}
{"smiles": "COCc1ccc(CN2CCC(n3nccc3NC(=O)CCCc3ccccc3)CC2)o1", "Potency": "inconclusive: 100 µM [inhibitor, single point]"}
{"smiles": "CCC1CCCCN1S(=O)(=O)c1ccc(NC(=O)CSc2ncccc2C(=O)O)cc1", "note": "(stereo not drawn)", "Potency": "inconclusive: 5.62 µM [inhibitor, partial curve, poor fit]"}
{"smiles": "COc1ccc(S(=O)(=O)Nc2cccc3c2O[C@H](CN(C)C)[C@@H](C)CN([C@H](C)CO)C3=O)cc1", "activity, negative = inhibition": "inactive: 53.1%"}
{"smiles": "Cc1cccc(C)c1NC(=O)Cn1cc(S(=O)(=O)Cc2ccc(F)cc2)c2ccccc21", "Potency": "inconclusive: 89.1 µM [inhibitor, partial curve, poor fit]"}
{"smiles": "CCOC(=O)CSc1nc2sc3c(c2c(=O)n1-c1ccccc1)CCN(C(C)C)C3", "Potency": "inconclusive: 20 µM [inhibitor, full curve, poor fit]"}
{"smiles": "CCn1ccnc1CN(C)Cc1nc(Cc2cccc(C(F)(F)F)c2)no1", "activity, negative = inhibition": "inactive: 31%"}
{"smiles": "COc1ccccc1C1/C(=C(/O)c2ccc(C)cc2)C(=O)C(=O)N1Cc1ccco1", "note": "(stereo not drawn)", "Potency": "inconclusive: 22.4 µM [inhibitor, single point]"}
{"smiles": "CCOC(=O)c1c(C)[nH]c(C)c1S(=O)(=O)N(C)CC(=O)N1CCN(c2cccc(Cl)c2)CC1", "Potency": "inconclusive: 79.4 µM [inhibitor, partial curve, poor fit]"}
{"smiles": "CCOC(=O)N1CCC(NS(=O)(=O)c2cc3c(cc2Cl)NC(=O)CO3)CC1", "Potency": "inconclusive: 8.91 µM [inhibitor, partial curve, poor fit]"}
{"smiles": "COc1ccc(C)cc1NC(=O)CSc1nnc2ccc(-c3ccccn3)nn12", "Potency": "inconclusive: 89.1 µM [inhibitor, single point]"}
{"smiles": "CCCNC(=S)NNC(=O)c1cccs1", "Potency": "inconclusive: 100 µM [inhibitor, single point]"}
{"smiles": "COCCn1c(N)c(C(=O)NCC2CCCO2)c2nc3ccccc3nc21", "note": "(stereo not drawn)", "Potency": "inconclusive: 5.62 µM [inhibitor, full curve, poor fit]"}
{"smiles": "O=C(COC(=O)c1ccc(Br)o1)Nc1ccc(N2CCOCC2)cc1", "activity, negative = inhibition": "inactive: 16.5%"}
{"smiles": "COc1ccc(-c2nc(N3CCN(S(=O)(=O)c4ccc(C)cc4)CC3)c3ccccc3n2)cc1", "Potency": "inconclusive: 89.1 µM [inhibitor, single point]"}
{"smiles": "O=C(O)c1cccc(NC(=S)N/N=C/c2ccccc2OCc2cccc(Br)c2)c1", "Potency": "inconclusive: 15.8 µM [inhibitor, full curve, poor fit]"}
{"smiles": "O=C(O)CCn1c(C(=O)O)cc2sccc21", "Potency": "inconclusive: 22.4 µM [inhibitor, single point]"}
{"smiles": "COc1ccc(C(=O)N/N=C\\C(C)=C\\c2ccccc2)cc1OC", "activity, negative = inhibition": "inactive: -26.1% [at 58.9 µM]"}
{"smiles": "O=C(C[n+]1ccccc1Cl)c1ccc(O)c(O)c1", "activity, negative = inhibition": "inactive: -22.1%"}
{"smiles": "Cc1ccc(NC(=O)CSC2=C(C#N)C(c3ccco3)C3=C(CC(C)(C)CC3=O)N2)cc1", "note": "(stereo not drawn)", "Potency": "inconclusive: 25.1 µM [inhibitor, single point]"}
{"smiles": "CCNc1sc(S(C)(=O)=O)nc1S(=O)(=O)c1ccc(C)cc1", "Potency": "inconclusive: 100 µM [inhibitor, single point]"}
{"smiles": "CC(=O)Nc1cccc(C(=O)/C=C/c2ccco2)c1", "Potency": "inconclusive: 15.8 µM [inhibitor, partial curve]"}
{"smiles": "O=C(Nc1ccc2c3c(cccc13)CC2)c1ccco1", "Potency": "inconclusive: 39.8 µM [inhibitor, single point]"}
{"smiles": "Cc1ccc(NC(=O)Cn2ncn3c(cc4ccccc43)c2=O)cc1C", "activity, negative = inhibition": "inactive: 36.5%"}
{"smiles": "COc1ccc(C(=O)CSC2=NS(=O)(=O)c3cc(Cl)ccc3N2)cc1", "Potency": "inconclusive: 89.1 µM [inhibitor, single point]"}
{"smiles": "COc1ccc(CNCCS(=O)(=O)NCc2ccc(OC)cc2)cc1", "Potency": "inconclusive: 89.1 µM [inhibitor, single point]"}
{"smiles": "Cc1ccc(CNC(=O)c2cccc(Nc3nc4ccccc4n4nnnc34)c2)cc1", "activity, negative = inhibition": "inactive: 9.46%"}
{"smiles": "Cc1cc(S(=O)(=O)N2CCCC2)ccc1OCC(=O)NCc1ccco1", "Potency": "inconclusive: 56.2 µM [inhibitor, full curve, poor fit]"}
{"smiles": "CCOC(=O)CC(NC(=O)CCc1c(C)nc2cc(-c3ccccc3)nn2c1C)c1ccc(C)cc1", "note": "(stereo not drawn)", "activity, negative = inhibition": "inactive: 74.4%"}
{"smiles": "O=C1COc2ccc(C(=O)COC(=O)Cc3ccc(F)cc3)cc2N1", "Potency": "inconclusive: 79.4 µM [inhibitor, partial curve]"}
{"smiles": "N#Cc1ccccc1NC(=O)C(=O)NCC(c1cccnc1)N1CCc2ccccc21", "note": "(stereo not drawn)", "activity, negative = inhibition": "inactive: 2.1%"}
